Measurements: patent US10570184B2, “GLP-1/glucagon receptor co-agonists for medical use” (Novo Nordisk A/S, priority 2014, dated 2020)
At least one compound was matched to its structure with a doubt left. Starred links: 1 amine or outer side, 2 acyl side, 3 side chain; linkers in the order of their positions; H or OH if unused. Non-standard residues stand in square brackets, D forms with d. Residues, ends and D or L forms follow the SMILES beside them. Groups on a side chain read outwards from the residue. *: point of attachment. C18 diacid = O=C(O)CCCCCCCCCCCCCCCCC(=O)*; γGlu = O=C(O)[C@H](CCC(=O)[*:2])N[*:1]; AEEA = NCCOCCOCC(=O)O; Aib = CC(C)(N)C(=O)O

Assay: Assay (III) ThT fibrillation assay for physical stability
Assay type: physicochemical
Details: 250 μM in 10 mM HEPES buffer, 37° C., shaking 960 rpm
Excerpt: The purpose of this assay is to assess the physical stability of the glucagon derivatives of the invention in aqueous solutions. Low physical stability of a peptide may lead to amyloid fibril formation, which is observed as well-ordered, thread-like macromolecular structures in the sample, which eventually may lead to gel formation. This has traditionally been measured by visual inspection of the sample. However, that kind of measurement is very subjective and depending on the observer. Therefore, the application of a small molecule indicator probe is much more advantageous. Thioflavin T (ThT) is such a probe and has a distinct fluorescence signature when binding to fibrils [Naiki et al. (1989) Anal. Biochem. 177, 244-249; LeVine (1999) Methods. Enzymol. 309, 274-284]. […] The constant t0 is the time needed to reach 50% of maximum fluorescence. The two important parameters describing fibril formation are the lag-time calculated by t0−2τ and the apparent rate constant kapp 1/τ. Samples were prepared freshly before each assay. Each sample composition is described in the legends. The pH of the sample was adjusted to the desired value using appropriate amounts of concentrated NaOH and HCl. Thioflavin T was added to the samples from a stock solution in H2O to a final concentration of 1 μM. Sample aliquots of 200 μl (250 μM of the glucagon derivative in 10 mM HEPES buffer, pH 7.5) were placed in a 96 well microtiter plate (Packard OptiPlate™-96, white polystyrene). Usually, four or eight replica of each sample (corresponding to one test condition) were placed in one column of wells. The plate was sealed with Scotch Pad (Qiagen). Incubation at given temperature, shaking and measurement of the ThT fluorescence emission were done in a Fluoroskan Ascent FL fluorescence platereader (Thermo Labsystems). The temperature was adjusted to 37° C. The plate was incubated with orbital shaking adjusted to 960 rpm with an amplitude of 1 mm. Fluorescence measurement was done using excitation through a 444 nm filter and measurement of emission through a 485 nm filter. Each run was initiated by incubating the plate at the assay temperature for 10 min. The plate was measured every 20 minutes for a desired period of time. Between each measurement, the plate was shaken and heated as described. After completion of the ThT assay the four or eight replica of each sample was pooled and centrifuged at 20000 rpm for 30 minutes at 18° C. The supernatant was filtered through a 0.22 μm filter and an aliquot was transferred to a HPLC vial. The concentration of peptide in the initial sample and in the filtered supernatant was determined by reverse phase HPLC using an appropriate standard as reference. The percentage fraction the concentration of the filtered sample constituted of the initial sample concentration was reported as the recovery. The measurement points were saved in Microsoft Excel format for further processing and curve drawing and fitting was performed using GraphPad Prism. The background emission from ThT in the absence of fibrils was negligible. The data points are typically a mean of four or eight samples and shown with standard deviation error bars. Only data obtained in the same experiment (i.e. samples on the same plate) are presented in the same graph ensuring a relative measure of fibrillation between experiments. The data set may be fitted to Eq. (1).

`CC[C@H](C)[C@H](NC(=O)[C@H](CC(C)C)NC(=O)[C@H](Cc1c[nH]c2ccccc12)NC(=O)[C@H](CCC(N)=O)NC(=O)[C@@H](NC(=O)[C@H](Cc1ccccc1)NC(=O)[C@H](CC(=O)O)NC(=O)[C@H](CCC(N)=O)NC(=O)[C@H](C)NC(=O)[C@H](CCCNC(=N)N)NC(=O)[C@H](CCCNC(=N)N)NC(=O)[C@@H](NC(=O)[C@H](CC(=O)O)NC(=O)[C@H](CC(C)C)NC(=O)[C@H](Cc1ccc(O)cc1)NC(=O)[C@H](CCCCN)NC(=O)[C@H](CO)NC(=O)[C@H](CC(C)C)NC(=O)[C@H](CC(=O)O)NC(=O)[C@H](CO)NC(=O)[C@@H](NC(=O)[C@H](Cc1ccccc1)NC(=O)[C@@H](NC(=O)CNC(=O)[C@H](CCC(N)=O)NC(=O)C(C)(C)NC(=O)[C@@H](N)Cc1c[nH]cn1)[C@@H](C)O)[C@@H](C)O)C(C)C)C(C)C)C(=O)N[C@@H](CCCCNC(=O)CC[C@H](NC(=O)COCCOCCNC(=O)COCCOCCNC(=O)CC[C@H](NC(=O)CC[C@H](NC(=O)CCCCCCCCCCCCCCCCC(=O)O)C(=O)O)C(=O)O)C(=O)O)C(=O)N[C@H](C(N)=O)[C@@H](C)O` [Chem. 40, N^ε28-[(4S)-4-carboxy-4-[[2-[2-[2-[[2-[2-[2-[[(4S)-4-carboxy-4-[[(4S)-4-carboxy-4-(17-carboxyheptadecanoylamino)butanoyl]amino]butanoyl]amino]ethoxy]ethoxy]acetyl]amino]ethoxy]ethoxy]acetyl]amino]butanoyl]-[Aib2,Leu10,Val16,Ile27,Lys28]-Glucagon amide] (H-H[Aib]QGTFTSDLSKYLDVRRAQDFVQWLIK([γGlu-AEEA-AEEA-γGlu-γGlu-C18 diacid])T-NH2; N-terminus assumed) and `CC[C@H](C)[C@H](NC(=O)[C@H](CC(C)C)NC(=O)[C@H](Cc1c[nH]c2ccccc12)NC(=O)[C@H](CCC(N)=O)NC(=O)[C@@H](NC(=O)[C@H](Cc1ccccc1)NC(=O)[C@H](CC(=O)O)NC(=O)[C@H](CCC(N)=O)NC(=O)[C@H](C)NC(=O)[C@H](CCCNC(=N)N)NC(=O)[C@H](CCCNC(=N)N)NC(=O)[C@H](C)NC(=O)[C@H](CC(=O)O)NC(=O)[C@H](CC(C)C)NC(=O)[C@H](Cc1ccc(O)cc1)NC(=O)[C@H](CCCCN)NC(=O)[C@H](CO)NC(=O)[C@@H](NC(=O)[C@H](CC(=O)O)NC(=O)[C@H](CO)NC(=O)[C@@H](NC(=O)[C@H](Cc1ccccc1)NC(=O)[C@@H](NC(=O)CNC(=O)[C@H](CCC(N)=O)NC(=O)C(C)(C)NC(=O)[C@@H](N)Cc1c[nH]cn1)[C@@H](C)O)[C@@H](C)O)C(C)C)C(C)C)C(=O)N[C@@H](CCCCNC(=O)CC[C@H](NC(=O)COCCOCCNC(=O)COCCOCCNC(=O)CC[C@H](NC(=O)CC[C@H](NC(=O)CCCCCCCCCCCCCCCCC(=O)O)C(=O)O)C(=O)O)C(=O)O)C(=O)N[C@H](C(N)=O)[C@@H](C)O` [Chem. 39, N^ε28-[(4S)-4-carboxy-4-[[2-[2-[2-[[2-[2-[2-[[(4S)-4-carboxy-4-[[(4S)-4-carboxy-4-(17-carboxyheptadecanoylamino)butanoyl]amino]butanoyl]amino]ethoxy]ethoxy]acetyl]amino]ethoxy]ethoxy]acetyl]amino]butanoyl]-[Aib2,Val10,Ala16,Ile27,Lys28]-Glucagon amide] (H-H[Aib]QGTFTSDVSKYLDARRAQDFVQWLIK([γGlu-AEEA-AEEA-γGlu-γGlu-C18 diacid])T-NH2; N-terminus assumed) are the same in “ThT Assay Lag time (h) [Assay (III), pH 7.5]” value (“ThT Assay Lag time (h)” for short): 45.0 h for the first, 45.0 h for the second.

First: CC[C@H](C)[C@H](NC(=O)[C@H](CC(C)C)NC(=O)[C@H](Cc1c[nH]c2ccccc12)NC(=O)[C@H](CCCCNC(=O)COCCOCCNC(=O)COCCOCCNC(=O)CC[C@H](NC(=O)CC[C@H](NC(=O)CC[C@H](NC(=O)CCCCCCCCCCCCCCCCC(=O)O)C(=O)O)C(=O)O)C(=O)O)NC(=O)[C@@H](NC(=O)[C@H](Cc1ccccc1)NC(=O)[C@H](CCC(=O)O)NC(=O)[C@H](CCCNC(=N)N)NC(=O)[C@H](C)NC(=O)[C@H](CCCNC(=N)N)NC(=O)[C@H](CCCNC(=N)N)NC(=O)[C@H](C)NC(=O)[C@H](CC(=O)O)NC(=O)[C@H](CC(C)C)NC(=O)[C@H](Cc1ccc(O)cc1)NC(=O)[C@H](CCCCN)NC(=O)[C@H](CO)NC(=O)[C@H](Cc1ccc(O)cc1)NC(=O)[C@H](CC(=O)O)NC(=O)[C@H](CO)NC(=O)[C@@H](NC(=O)[C@H](Cc1ccccc1)NC(=O)[C@@H](NC(=O)CNC(=O)[C@H](CCC(N)=O)NC(=O)C(C)(C)NC(=O)[C@@H](N)Cc1c[nH]cn1)[C@@H](C)O)[C@@H](C)O)C(C)C)C(=O)N[C@@H](CO)C(=O)N[C@H](C(N)=O)[C@@H](C)O [Chem. 4, N^ε24-[2-[2-[2-[[2-[2-[2-[[(4S)-4-carboxy-4-[[(4S)-4-carboxy-4-[[(4S)-4-carboxy-4-(17-carboxyheptadecanoylamino)butanoyl]amino]butanoyl]amino]butanoyl]amino]ethoxy]ethoxy]acetyl]amino]ethoxy]ethoxy]acetyl]-[Aib2,Ala16,Arg20,Glu21,Lys24,Ile27,Ser28]-Glucagon amide] (H-H[Aib]QGTFTSDYSKYLDARRAREFVK([AEEA-AEEA-γGlu-γGlu-γGlu-C18 diacid])WLIST-NH2; N-terminus assumed)
Second: CC[C@H](C)[C@H](NC(=O)[C@H](CC(C)C)NC(=O)[C@H](Cc1c[nH]c2ccccc12)NC(=O)[C@H](CCCCNC(=O)COCCOCCNC(=O)COCCOCCNC(=O)CC[C@H](NC(=O)CC[C@H](NC(=O)CC[C@H](NC(=O)CCCCCCCCCCCCCCCCC(=O)O)C(=O)O)C(=O)O)C(=O)O)NC(=O)[C@@H](NC(=O)[C@H](Cc1ccccc1)NC(=O)[C@H](CCC(=O)O)NC(=O)[C@H](CCCNC(=N)N)NC(=O)[C@H](C)NC(=O)[C@H](CCCNC(=N)N)NC(=O)[C@H](CCCCN)NC(=O)[C@H](C)NC(=O)[C@H](CC(=O)O)NC(=O)[C@H](CC(C)C)NC(=O)[C@H](Cc1ccc(O)cc1)NC(=O)[C@H](CCCCN)NC(=O)[C@H](CO)NC(=O)[C@H](Cc1ccc(O)cc1)NC(=O)[C@H](CC(=O)O)NC(=O)[C@H](CO)NC(=O)[C@@H](NC(=O)[C@H](Cc1ccccc1)NC(=O)[C@@H](NC(=O)CNC(=O)[C@H](CCC(N)=O)NC(=O)C(C)(C)NC(=O)[C@@H](N)Cc1c[nH]cn1)[C@@H](C)O)[C@@H](C)O)C(C)C)C(=O)N[C@@H](CO)C(=O)N[C@H](C(N)=O)[C@@H](C)O [Chem. 2, N^ε24-[2-[2-[2-[[2-[2-[2-[[(4S)-4-carboxy-4-[[(4S)-4-carboxy-4-[[(4S)-4-carboxy-4-(17-carboxyheptadecanoylamino)butanoyl]amino]butanoyl]amino]butanoyl]amino]ethoxy]ethoxy]acetyl]amino]ethoxy]ethoxy]acetyl]-[Aib2,Ala16,Lys17,Arg20,Glu21,Lys24,Ile27,Ser28]-Glucagon amide] (H-H[Aib]QGTFTSDYSKYLDAKRAREFVK([AEEA-AEEA-γGlu-γGlu-γGlu-C18 diacid])WLIST-NH2; N-terminus assumed)
The “ThT Assay Lag time (h)” value of the first is lower: 26.0 h for the first, 33.0 h for the second.

With `CC[C@H](C)[C@H](NC(=O)[C@H](CC(C)C)NC(=O)[C@H](Cc1c[nH]c2ccccc12)NC(=O)[C@H](CCC(N)=O)NC(=O)[C@@H](NC(=O)[C@H](Cc1ccccc1)NC(=O)[C@H](CC(=O)O)NC(=O)[C@H](CCC(N)=O)NC(=O)[C@H](C)NC(=O)[C@H](CCCNC(=N)N)NC(=O)[C@H](CCCNC(=N)N)NC(=O)[C@H](CO)NC(=O)[C@H](CCC(=O)O)NC(=O)[C@H](CC(C)C)NC(=O)[C@H](Cc1ccc(O)cc1)NC(=O)[C@H](CCCCN)NC(=O)[C@H](CO)NC(=O)[C@@H](NC(=O)[C@H](CC(=O)O)NC(=O)[C@H](CO)NC(=O)[C@@H](NC(=O)[C@H](Cc1ccccc1)NC(=O)[C@@H](NC(=O)CNC(=O)[C@H](CCC(N)=O)NC(=O)C(C)(C)NC(=O)[C@@H](N)Cc1c[nH]cn1)[C@@H](C)O)[C@@H](C)O)C(C)C)C(C)C)C(=O)N[C@@H](CCCCNC(=O)COCCOCCNC(=O)COCCOCCNC(=O)CC[C@H](NC(=O)CC[C@H](NC(=O)CC[C@H](NC(=O)CCCCCCCCCCCCCCCCC(=O)O)C(=O)O)C(=O)O)C(=O)O)C(=O)N[C@H](C(N)=O)[C@@H](C)O` [Chem. 10, N^ε28-[2-[2-[2-[[2-[2-[2-[[(4S)-4-carboxy-4-[[(4S)-4-carboxy-4-[[(4S)-4-carboxy-4-(17-carboxyheptadecanoylamino)butanoyl]amino]butanoyl]amino]butanoyl]amino]ethoxy]ethoxy]acetyl]amino]ethoxy]ethoxy]acetyl]-[Aib2,Val10,Glu15,Ile27,Lys28]-Glucagon amide] (H-H[Aib]QGTFTSDVSKYLESRRAQDFVQWLIK([AEEA-AEEA-γGlu-γGlu-γGlu-C18 diacid])T-NH2) the “ThT Assay Lag time (h)” value was 45.0 h.
